Results on six compounds are retold here after article PMC12264794, “Homoleptic complexes of titanium(IV) fused with O^N^O Schiff base derivatives: design, BSA–DNA interaction, molecular docking, DFT and cytotoxicity” (RSC Advances, 2025).

Data set [1] concerns CT-DNA. Description: UV-vis absorption titration with CT-DNA. The data set is classed as binding, calf. Conditions: on addition of CT-DNA. The procedure:
The UV-vis titration technique was employed to conduct DNA binding investigations of the newly synthesized Ti(IV)complexes. The binding interactions between Ti(IV) complexes and CT-DNA 5 mM (5 × 10^−5 M) produced in PBS buffer were assessed in a 5 mM phosphate buffer (PBS) with a pH of 7.4. The ratio of UV absorbance of CT-DNA at each position, 260 and 280 nm, was confirmed. The concentration of each nucleotide was calculated using the molar absorption coefficient (6600 m^−1) of CT-DNA at 260 nm. Additional dilutions were made in 5 mM PBS buffer solution, and stock solutions of metal complexes were prepared in DMSO. DNA binding experiments were performed with a fixed concentration of the complex (20 μM) and increasing concentrations of CT-DNA (0–80 μM) in sample solutions to detect the CT-DNA absorbance peak.[41,42]
UV-vis spectra typically show a shift in wavelength and a change in absorption spectra as a result of the interaction of the Ti(IV) complexes with DNA. […] These modifications represent the properties of the complexes attached to DNA by covalent or noncovalent interactions. Then, using eqn (4), the binding characteristics for the aforementioned complexes, including binding constant (Kb) and binding sites, were determined.4 [drawing 4] where εa, εf, and εb represent the apparent extinction coefficient of the complex, the extinction coefficient of the complex in its free form and the extinction coefficient of the complex when completely bound to DNA.

Data set [2] has as its system CT-DNA. The data set is described as follows: Competitive EtBr displacement fluorescence quenching on CT-DNA. The data set is classed as binding, calf. The settings on record: Scatchard plot. The procedure: Using fluorescence spectroscopy, the competitive binding relationship between metal complexes and CT-DNA bound to ethidium bromide was investigated. EtBr and CT-DNA solutions at a 5 mM concentration were made in PBS buffer (pH 7.4) for the fluorescence studies. After that, the reference solutions were allowed to settle at room temperature for an hour and the CT-DNA reference solution (200 μM) was coupled to ethidium bromide (50 μM) and allowed to rest for the specified period. The excitation and emission wavelengths were set at 460 nm and incremental addition of Ti(IV) complex concentrations ranging from 0 to 80 μM were used to titrate constant concentrations of EtBr-CT-DNA solution.[43,44]
A known volume of 200 μM CT-DNA (5 Mm) and 50 μM EB was mixed with an aqueous PBS buffer to make an EB-CT-DNA solution. The mixture was then kept at room temperature for 20 minutes before the complexes were titrated. Analysis of the competitive interaction mechanisms of the complexes towards CT-DNA involved the incremental addition of Ti(IV) complexes to the mixture of EB-CT-DNA. The modification in the emission spectral profile of EB-DNA indicated the impact of the addition of the complexes and there was a noticeable decrease in inflorescence intensity when the Ti(IV) complexes (0–100 μM) were added to the EB-CT-DNA system (Fig. 4(a), ESI Fig. S63 ^† and Table 2).
The linear plot of I0/I versus [complex] […] KSV is the Stern–Volmer quenching constant, and [Q] is the quencher concentration.6 Kapp × [Complex]50 = KEtBr × [EtBr]For the Ti(IV) complexes, Kapp (the apparent binding constant) was calculated using eqn (6), where KEtBr (1.0 × 10^7 M^−1) is the DNA binding constant of EB, [EtBr] is the concentration of EB = 10 μM and [Complex]50 denotes the complex concentration at which the fluorescence intensity of the DNA-EB adduct is reduced to 50%. […] Furthermore, the number of binding sites (n) and the equilibrium binding constant K were ascertained by using the Scatchard eqn (7):7 Log(I0 − I/I) = log K + n log[Q]where I0 is the fluorescence intensity of CT-DNA + EtBr in the absence of complex and I points to the fluorescence intensities of CT-DNA in the presence of a complex of concentration [Q]. The significant quenching in fluorescence intensity of all metal complexes (Table 2), the Stern–Volmer (ESI Fig. S64 ^†) and Scatchard plots (Fig. 4(c), ESI Fig. S65 ^† and Table 2), and other computations performed, supported the strong groove-binding interaction mode with CT-DNA.

For the compound `[O-]C(=NN=Cc1ccccc1[O-])c1ccncc1.[O-]C(=NN=Cc1ccccc1[O-])c1ccncc1.[Ti+4]` [Ti-1-IS], the “Change in absorbance intensity” value in data set [1] was “Hyperchromism”. Moreover, the “n, number of binding sites” value in data set [2] was 1.45.
Regarding `[O-]C(=NN=Cc1c([O-])ccc2ccccc12)c1ccncc1.[O-]C(=NN=Cc1c([O-])ccc2ccccc12)c1ccncc1.[Ti+4]` [Ti-2-IN], the “Change in absorbance intensity” value in data set [1] was “Hyperchromism”. In addition, in data set [2], the “n, number of binding sites” value turned out to be 1.06.
In the same order, the values of `COc1cccc(C=NN=C([O-])c2ccncc2)c1[O-].COc1cccc(C=NN=C([O-])c2ccncc2)c1[O-].[Ti+4]` [Ti-3-IO] are “Hyperchromism” and 1.45.
Regarding `[O-]C(=NN=Cc1cc(F)ccc1[O-])c1ccncc1.[O-]C(=NN=Cc1cc(F)ccc1[O-])c1ccncc1.[Ti+4]` [Ti-4-IF], the “Change in absorbance intensity” value in data set [1] was “Hyperchromism”. For the same compound, the “n, number of binding sites” value in data set [2] came to 1.02.
`[O-]C(=NN=Cc1cc(Cl)ccc1[O-])c1ccncc1.[O-]C(=NN=Cc1cc(Cl)ccc1[O-])c1ccncc1.[Ti+4]` [Ti-5-ICl]: the “Change in absorbance intensity” value in data set [1] was “Hyperchromism”. Moreover, the “n, number of binding sites” value in data set [2] was determined as 1.38.
Taken in the same sequence, the figures for `Brc1ccc2c(c1)C=NN=C(c1ccncc1)[O][Ti]1([O]C(c3ccncc3)=NN=Cc3cc(Br)ccc3[O]1)[O]2` (stereo not drawn) [Ti-6-IBr] were “Hyperchromism” and 1.01.
